Source: patent US9102835B2, “Methods of using dyes in association with nucleic acid staining or detection and associated technology” (Biotium, Inc., priority 2005, dated 2015)

Tests used:
salmon sperm DNA [1] = experiment: Absorbance and fluorescence of DMAO and AOAO-7 without and with DNA; settings: PBS buffer; for Red shift of absorbance upon binding to DNA, relative to free dye: 2 mg/ml salmon sperm DNA
salmon sperm DNA [2] = experiment: Absorbance spectra of TOTO-1 and TOTO-3 without and with DNA; settings: PBS buffer, without DNA
[3] = tested on: salmon sperm DNA or a mixture of single-stranded 20mer oligonucleotide; experiment: Fluorescence of AOAO-12 in response to different amount of DNA; settings: 0.1 μM dye in PBS

| Compound | Red shift of absorbance upon binding to DNA, relative to free dye (salmon sperm DNA [1]) [nm] | Spectral shift / intramolecular H-dimer formation of free dye (salmon sperm DNA [2]) | also measured |
| --- | --- | --- | --- |
| CN(C)CCC[n+]1c2cc(N(C)C)ccc2cc2ccc(N(C)C)cc21.[I-] [DMAO] | 10 | – | – |
| C[n+]1c(/C=C2/C=CN(CCCCCC(=O)NCCNC(=O)CCCCCN3C=C/C(=C\c4sc5ccccc5[n+]4C)c4ccccc43)c3ccccc32)sc2ccccc21 [TOTO-3] | – | forms an intramolecular H-dimer, or a hairpin structure | – |
| CN1/C(=C/c2cc[n+](CCC[N+](C)(C)CCC[N+](C)(C)CCC[n+]3ccc(/C=C4\Sc5ccccc5N4C)c4ccccc43)c3ccccc23)Sc2ccccc21.[I-].[I-].[I-].[I-] [TOTO-1, reference compound] | – | has less spectral shift | – |
| CN(C)c1ccc2cc3ccc(N(C)C)cc3[n+](CCCCCC(=O)NCCCCCNC(=O)CCCCC[n+]3c4cc(N(C)C)ccc4cc4ccc(N(C)C)cc43)c2c1 [AOAO-7] | 5 | – | New shorter wavelength absorbance peak relative to DMAO (aggregation of the two monomers) (salmon sperm DNA [1]; without DNA): 471 nm |
| CN(C)c1ccc2cc3ccc(N(C)C)cc3[n+](CCCCCC(=O)NCCOCCNC(=O)CCCCC[n+]3c4cc(N(C)C)ccc4cc4ccc(N(C)C)cc43)c2c1 [AOAO-12] | – | – | DNA concentration up to which fluorescence responded linearly [3]: 2.0 µg/mL; Fluorescence bound to double stranded versus single stranded DNA [3]: fluoresces more intensely when bound to double stranded DNA than when bound to single stranded DNA |
